At least one peptide structure holds a part that was inferred or is arguable (an end, a ring closure or a residue). Where a SMILES comes first, the peptide text is derived from it.
Columns and labels:
[1] = system: Fischer rats; assay: Complete blood cell count (CBC) analysis of peripheral blood; assay type: in vivo, rat; settings: FIG. 1
Protocol: 8 to 12-week-old female Fischer 344/N rats (body weight 160-200 g) were obtained from Harlan Sprague Dawley Inc. (Indianapolis, Ind.).
Irinotecan was purchased as a ready-to-use formulation solution at a concentration of 20 mg/ml (100 mg in a 5 ml vial). For a rat of 150-200 g, an administration up to 2 ml solution (dose of 200 mg/kg/d×3) was required.
Elsiglutide was administered by subcutaneous (S.C) route at 1.8 mg/kg/day once a day for 4 days. Three doses were administered 30 minutes prior to each daily intravenous (I.V) dose of irinotecan. Only the fourth dose of elsiglutide was administered 24 hours after the last dose of irinotecan. Irinotecan was administered by intravenous (I.V) injection at the maximum tolerated and therapeutic dose, 100, 150, 200 mg/kg/day for 3 days.
Hematological (CBC) Analysis • Complete blood cell count (CBC) analysis (days 0, 4, and 9) • From peripheral blood 14 markers, WBC (differential: neutrophils, lymphocytes, eosinophils, monocytes, basophils) and RDW-SD, RBC, HGB, HCT, MCV, MCH, MCHC, and Platelets were analyzed.
The statistical analysis of complete blood cells (CBC) results was carried out. The differences between the mean values in the different treatment groups were analyzed for significance.
Treatment groups and time when specific acquisition of tissues was obtained are outlined below. […]

[2] = system: rats bearing colon tumors and xenografts bearing human colon carcinoma, HCT8 and HT-29; assay: Antitumor activity in tumor-bearing rodents; assay type: in vivo; settings: with elsiglutide
Protocol: (§1) Studies were carried out in normal rats, rats bearing colon tumors and xenografts bearing human colon carcinoma, HCT8 and HT-29. Studies were carried out to test the hypothesis that elsiglutide offers selective protection against 5-Fluorouvacil-(5-FU) and irinotecan-induced toxicities and potentially enhances their antitumor activity. Elsiglutide was administered subcutaneously at non-toxic but therapeutically-effective dose of 1.8 mg/kg/day daily for 4 days, 30 min prior to each 5-FU/irinotecan dose. The tested doses of 5-FU were 100 mg/kg (MTD) and 200 mg/kg, and the doses of irinotecan were 100 mg/kg (MTD) and 200 mg/kg, either daily ×3 or weekly ×4.

[3] = system: normal rats, rats bearing colon tumors and xenografts; assay: Protection against 5-FU- and irinotecan-induced toxicities; assay type: in vivo, mice and rats; settings: elsiglutide 1.8 mg/kg/day s.c. daily for 4 days
Protocol: as §1

## CC[C@H](C)[C@H](NC(=O)[C@H](CC(C)C)NC(=O)[C@H](Cc1c[nH]c2ccccc12)NC(=O)[C@H](C)NC(=O)[C@@H](NC(=O)[C@H](Cc1ccccc1)NC(=O)[C@H](CC(=O)O)NC(=O)[C@H](CCCNC(=N)N)NC(=O)[C@H](C)NC(=O)[C@H](C)NC(=O)[C@H](CC(C)C)NC(=O)[C@H](C)NC(=O)[C@H](CC(=O)O)NC(=O)[C@H](CC(C)C)NC(=O)[C@@H](NC(=O)[C@@H](NC(=O)[C@H](CO)NC(=O)[C@H](CC(C)C)NC(=O)[C@H](CCC(=O)O)NC(=O)[C@H](CO)NC(=O)[C@H](CO)NC(=O)[C@H](Cc1ccccc1)NC(=O)[C@H](CO)NC(=O)CNC(=O)[C@H](CCC(=O)O)NC(=O)CNC(=O)[C@@H](N)Cc1c[nH]cn1)[C@@H](C)O)[C@@H](C)CC)[C@@H](C)CC)C(=O)N[C@@H](C)C(=O)N[C@H](C(=O)N[C@@H](CCCCN)C(=O)N[C@H](C(=O)N[C@H](C(=O)N[C@@H](CC(=O)O)C(=O)N[C@@H](CCCCN)C(=O)N[C@@H](CCCCN)C(=O)N[C@@H](CCCCN)C(=O)N[C@@H](CCCCN)C(=O)N[C@@H](CCCCN)C(=O)N[C@@H](CCCCN)C(N)=O)[C@@H](C)O)[C@@H](C)CC)[C@@H](C)O [elsiglutide] (H-HGEGSFSSELSTILDALAARDFIAWLIATKITDKKKKKK-NH2)
[1]; 200 mg/kg irinotecan with Elsiglutide combination, by day 9
  Platelet/Group count: did not reach the normal level
[1]; Day 9, combination groups with irinotecan
  WBC/Group count: increased the WBC/Group count to normal level
[2]
  kinetics of response observed with 5-FU and irinotecan: enhanced by several days
[3]
  histological damage induced by lethal dose of 5-FU and irinotecan: restored
